Results are given in words; binding and its absence hold for the method and conditions named. Binding seen in cells or lysates may run through a third protein. Some binding calls cover weakened binding; strength is not graded here.

Sequences of proteins named here, by UniProt entry; tags and fusion partners are left off. A change or cut given only in a name is not applied to a line headed by its entry. A line that says so, or that is headed by a name, gives the form on record, which may keep a tag or linker. Residues count along the entry.
p75 neurotrophin receptor (p75^NTR), wild type (mouse (endogenous in hippocampus)) (Q9Z0W1, residues 32-427): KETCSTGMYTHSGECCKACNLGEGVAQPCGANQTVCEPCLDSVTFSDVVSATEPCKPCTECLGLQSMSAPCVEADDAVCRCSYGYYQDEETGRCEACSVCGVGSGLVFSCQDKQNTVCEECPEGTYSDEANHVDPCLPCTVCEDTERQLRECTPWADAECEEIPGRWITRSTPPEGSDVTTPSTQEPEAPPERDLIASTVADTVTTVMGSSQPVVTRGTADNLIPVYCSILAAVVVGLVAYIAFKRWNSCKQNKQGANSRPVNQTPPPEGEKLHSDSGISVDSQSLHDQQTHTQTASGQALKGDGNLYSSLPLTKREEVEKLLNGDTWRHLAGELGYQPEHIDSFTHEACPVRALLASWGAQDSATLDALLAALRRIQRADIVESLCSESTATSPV
palmitoylation-deficient mutant of p75^NTR (p75^C281A) (mouse (endogenous in hippocampus)) (Q9Z0W1, form named): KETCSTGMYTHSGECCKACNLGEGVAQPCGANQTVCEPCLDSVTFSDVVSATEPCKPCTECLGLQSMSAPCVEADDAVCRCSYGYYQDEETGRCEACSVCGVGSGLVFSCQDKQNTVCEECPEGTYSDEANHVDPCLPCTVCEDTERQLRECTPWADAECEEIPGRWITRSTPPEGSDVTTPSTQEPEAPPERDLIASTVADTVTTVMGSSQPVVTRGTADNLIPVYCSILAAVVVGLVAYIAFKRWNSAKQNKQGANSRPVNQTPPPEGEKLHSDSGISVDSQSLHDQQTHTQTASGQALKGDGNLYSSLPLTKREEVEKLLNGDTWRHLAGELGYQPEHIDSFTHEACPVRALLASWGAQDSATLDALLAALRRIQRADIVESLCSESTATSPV

Consider three molecules from article PMC13151129.

Assay [1] deals with p75^NTR, wild type, HA- or Myc-tagged, transfected (UniProt Q9Z0W1). The experiment in a line: co-IP; HEK293T cells co-transfected with HA-tagged and Myc-tagged p75^NTR (wild type and C281A), 24 h; Co-IP lysis buffer; precipitated with HA antibody overnight at 4 °C, protein A/G magnetic beads; Western blot.
Assay [2] deals with p75^NTR C281A palmitoylation-deficient mutant, HA- or Myc-tagged, transfected (UniProt Q9Z0W1). The description is as above.
Assay [3] addresses palmitoylation-deficient mutant of p75^NTR (p75^C281A) (mouse (endogenous in hippocampus)) (UniProt Q9Z0W1). The experiment in a line: co-IP; postnatal day 7 hippocampal extracts from WT or m/m mice; Co-IP lysis buffer (50 mM Tris-HCl pH 7.2, NaCl, 0.5 mM EDTA, 250 mM sucrose, 60 mM octyl-β-glucoside, 1% Triton X-100); precipitated with antibody to the p75^NTR death domain overnight at 4 °C, protein A/G magnetic beads; Western ….

The target in assay [4] is p75 neurotrophin receptor (p75^NTR), wild type (mouse (endogenous in hippocampus)) (UniProt Q9Z0W1). Described as above.

With “p75^NTR, wild type, HA- or Myc-tagged, transfected (from UniProt Q9Z0W1 32-427) (receptor)”, the binding entry in assay [1] was “binds”.

As for “p75^NTR C281A palmitoylation-deficient mutant, HA- or Myc-tagged, transfected (from UniProt Q9Z0W1 32-427) (receptor)”, the binding entry in assay [1] and in assay [2] was “binds” each time.

B1: caveolin-1 (protein, UniProt P49817 1-178)
chain: MSGGKYVDSEGHLYTVPIREQGNIYKPNNKAMADEVTEKQVYDAHTKEIDLVNRDPKHLNDDVVKIDFEDVIAEPEGTHSFDGIWKASFTTFTVTKYWFYRLLSTIFGIPMALIWGIYFAILSFLHIWAVVPCIKSFLIEIQCISRVYSIYVHTFCDPLFEAIGKIFSNIRISTQKEI
As for B1, the binding entry in assay [3] and in assay [4] was “binds” each time.
